Source: US20140323573A1, “METABOLIZABLE SALTS AND USE THEREOF IN DIAGNOSTICS AND THERAPY” (priority 2011, published 2014)
Counter-ions that a name gives are not always drawn.

Assay: Base excess (BE), potential base excess (BEpot) and Na-addition, derived
Details: for BE / BEpot / Na-addition: 10 mmol/l in blood: dilution 1:10 of a 100 mmol/l solution

Structure (SMILES): N=C(N)NCCC[C@H](N)C(=O)O.O=C(O)O [Arg HCO3]
- metabolic effect on the acid-base balance (in words): acts neutral

Structure (SMILES): Cl.N=C(N)NCCC[C@H](N)C(=O)O [Arg HCl, arginine hydrochloride]
- metabolic effect on the acid-base balance (in words): acts as acid

Structure (SMILES): O=C([O-])CC(O)(CC(=O)[O-])C(=O)O.[Na+].[Na+] [Na2H citrate]
- BE: -10 mmol/L
- BEpot: +20 mmol/l
- Na-addition: 20 mmol/L

Structure (SMILES): O=C(O)CC(O)(CC(=O)O)C(=O)O [Na3 citrate]
- BE: 0 mmol/L
- BEpot: +30 mmol/l
- Na-addition: 30 mmol/L

Structure (SMILES): O=C(O)CC(O)(CC(=O)O)C(=O)O [NaH2 citrate]
- BE: -20 mmol/L
- BEpot: +10 mmol/l
- Na-addition: 10 mmol/L

Structure (SMILES): CC(=O)O [acetic acid]
- metabolic effect on the acid-base balance (in words): acts reversibly as acid

Structure (SMILES): Cl.N [ammonium chloride]
- metabolic effect on the acid-base balance (in words): acts as acid

Structure (SMILES): O=C(O)CC(O)(CC(=O)O)C(=O)O [citric acid]
- BE: -30 mmol/L
- BEpot: 0 mmol/L
- Na-addition: 0 mmol/L

Structure (SMILES): CC(=O)[O-].[Na+] [sodium acetate]
- metabolic effect on the acid-base balance (in words): acts irreversibly as alkalising
